According to PubChem BioAssay AID328 (DTP/NCI, 2004):
The list is a part of this screen's results and no random one: it is rich in T/C values a quarter to a half above the control, in often repeated tests (any T/C) and in doses without a T/C. Further doses and runs are listed elsewhere. T/C: endpoint of the treated group in % of that of the vehicle group. Some entries give survivors of the animals treated and no T/C: the source files T/C as zero there, which appears to mark a toxic dose or a test without result, not a measured value. Some survivor counts are full or nearly so, which does not show that the dose was tolerated: survival well below the control is almost never listed, so the zero probably covers shortened survival too. Counts of survivors are from the toxicity check (mostly the fifth day) where no day follows; animals may have died later. Schedules are NCI's codes, taken here to give the interval after Q, in days (D) or hours (H), and the number of doses after X. Where survival is the endpoint, the PubChem record calls one and a half times the control and up active, and a quarter to a half above the control has no call in these data; cut-offs in other NCI protocols can differ. Additions like (4×) give the number of equal values in this list. Some T/C values are followed by the survivors on the day toxicity was checked, most often the fifth; without a count, all were alive then. Some doses were run more than once; their values stand side by side, smallest first.

System: BDF1 mice, P388 leukemia ip, median survival T/C
Test: NCI In Vivo Anticancer Drug Screen. Data for tumor model P388 Leukemia (intraperitoneal) in B6D2F1 (BDF1) mice
Conditions: T/C endpoint: median survival time, higher T/C = longer survival
How it was run: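 Each value expresses how treatment altered survival: treated-mouse outcome over vehicle-mouse outcome, both groups bearing the transplanted tumour.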

[1] = dose: 50.0 mg/kg/injection, schedule: Q01DX009 (ip), vehicle: Klucel (hydroxypropylcellulose) (HPC)
[2] = dose: 75.0 mg/kg/injection, schedule: Q01DX010 (ip), vehicle: water

With `O=P1(N(CCCl)CCCl)NCCCO1` (stereo unspecified) the T/C (dose: 50.0 mg/kg/injection, schedule: Q01DX005 (ip), vehicle: Klucel (hydroxypropylcellulose) (HPC), evaluated on day 35) was 335 % of control, the survivor count (dose: 50.0 mg/kg/injection, schedule: Q01DX005 (ip), vehicle: Klucel (hydroxypropylcellulose) (HPC)) was 3 of 3 and the T/C [1] was 93, 95, 97, 105, 120, 122, 124, 126, 132, 134, 135, 138, 153, 160, 168, 188, 191, 203, 221, 232, 233, 241, 243, 245, 249, 255, 256, 263, 264, 267, 270, 272, 288 % of control. The survivor count [1] was 3 of 3, the T/C (dose: 50.0 mg/kg/injection, schedule: Q04DX002 (ip), vehicle: Klucel (hydroxypropylcellulose) (HPC), evaluated on day 30) was 134, 151, 193, 198, 201, 202, 204, 205, 206, 214, 218 (2×), 220 (2×), 228 (2×), 238, 242, 247 (2×), 250 (2×), 252, 253, 259, 262, 263, 275, 291 (3×), 300, 305 % of control and the T/C (dose: 50.0 mg/kg/injection, schedule: Q04DX002 (ip), vehicle: Klucel (hydroxypropylcellulose) (HPC), evaluated on day 35) was 241 % of control. The T/C (dose: 50.0 mg/kg/injection, schedule: Q04DX003 (ip), vehicle: Klucel (hydroxypropylcellulose) (HPC), evaluated on day 30) was 86, 99, 105, 121, 127, 131 [4 of 6 alive], 139 [5 of 6 alive], 140, 150, 151, 153, 157, 163, 166, 173, 209, 222, 223 (2×), 229 (2×), 232, 238 [2 of 3 alive], 243, 247, 253, 254, 258, 270, 272, 279, 280, 287 % of control, the T/C (dose: 50.0 mg/kg/injection, schedule: Q04DX003 (ip), vehicle: Klucel (hydroxypropylcellulose) (HPC), evaluated on day 35) was 111 [2 of 3 alive] and 223 % of control and the survivor count (dose: 50.0 mg/kg/injection, schedule: Q04DX003 (ip), vehicle: Klucel (hydroxypropylcellulose) (HPC)) was 3 of 3. For the same compound, the T/C (dose: 60.0 mg/kg/injection, schedule: Q01DX010 (ip), vehicle: water) was 90, 95, 104, 115, 130 % of control, the T/C (dose: 67.0 mg/kg/injection, schedule: Q04DX003 (ip), vehicle: saline, evaluated on day 5) was 112, 120, 201, 208, 268, 287, 302 % of control and the T/C (dose: 67.0 mg/kg/injection, schedule: Q04DX003 (ip), vehicle: saline, evaluated on day 60) was 112, 120, 201, 208, 268, 287, 302 % of control. The T/C (dose: 75.0 mg/kg/injection, schedule: Q01DX001 (ip), vehicle: saline, evaluated on day 5) was 213 % of control, the T/C (dose: 75.0 mg/kg/injection, schedule: Q01DX001 (ip), vehicle: saline, evaluated on day 34) was 151 % of control and the T/C (dose: 75.0 mg/kg/injection, schedule: Q01DX001 (ip), vehicle: saline, evaluated on day 46) was 238 % of control. The T/C (dose: 75.0 mg/kg/injection, schedule: Q01DX001 (ip), vehicle: saline, evaluated on day 60) was 213 % of control, the T/C [2] was 90, 115, 120, 130 % of control and the survivor count [2] was 5 of 6. For the same compound, the T/C (dose: 80.0 mg/kg/injection, schedule: Q01DX005 (ip), vehicle: saline, evaluated on day 30) was 90 and 283 % of control, the T/C (dose: 80.0 mg/kg/injection, schedule: Q01DX005 (ip), vehicle: saline, evaluated on day 35) was 343 % of control (2×) and the T/C (dose: 80.0 mg/kg/injection, schedule: Q01DX005 (ip), vehicle: saline, evaluated on day 40) was 396 % of control. The survivor count (dose: 80.0 mg/kg/injection, schedule: Q01DX005 (ip), vehicle: saline) was 6 of 6, the T/C (dose: 80.0 mg/kg/injection, schedule: Q01DX009 (ip), vehicle: saline, evaluated on day 30) was 94 % of control and the T/C (dose: 80.0 mg/kg/injection, schedule: Q01DX009 (ip), vehicle: saline, evaluated on day 35) was 235 % of control (2×). For the same compound, the T/C (dose: 80.0 mg/kg/injection, schedule: Q01DX009 (ip), vehicle: saline, evaluated on day 40) was 89 % of control, the survivor count (dose: 80.0 mg/kg/injection, schedule: Q01DX009 (ip), vehicle: saline) was 6 of 6 and the T/C (dose: 100.0 mg/kg/injection, schedule: Q01DX001 (ip), vehicle: Klucel (hydroxypropylcellulose) (HPC), evaluated on day 30) was 98, 110, 165, 181, 182, 185, 195 (2×), 198, 200, 208, 221, 222, 229, 234, 237, 241, 242, 245 (2×), 252 (3×), 258, 262, 267, 271, 275, 275 % of control [5 of 6 alive]. For the same compound, the T/C (dose: 100.0 mg/kg/injection, schedule: Q01DX001 (ip), vehicle: Klucel (hydroxypropylcellulose) (HPC), evaluated on day 35) was 267 and 281 % of control, the survivor count (dose: 100.0 mg/kg/injection, schedule: Q01DX001 (ip), vehicle: Klucel (hydroxypropylcellulose) (HPC)) was 3 of 3 and the T/C (dose: 100.0 mg/kg/injection, schedule: Q01DX001 (ip), vehicle: saline, evaluated on day 30) was 168, 175, 200, 250, 262 % of control. The T/C (dose: 100.0 mg/kg/injection, schedule: Q01DX001 (ip), vehicle: saline, evaluated on day 35) was 213 and 228 % of control, the T/C (dose: 100.0 mg/kg/injection, schedule: Q01DX001 (ip), vehicle: saline, evaluated on day 40) was 217 % of control and the T/C (dose: 100.0 mg/kg/injection, schedule: Q01DX001 (ip), vehicle: saline, evaluated on day 60) was 389 % of control. For the same compound, the survivor count (dose: 100.0 mg/kg/injection, schedule: Q01DX001 (ip), vehicle: saline) was 10 of 10, the T/C (dose: 100.0 mg/kg/injection, schedule: Q01DX005 (ip), vehicle: Klucel (hydroxypropylcellulose) (HPC), evaluated on day 30) was 87, 91, 92, 94, 96, 100, 112, 115, 120, 128, 140, 150, 157, 200, 211, 223, 241, 243, 250, 256, 266, 271, 272 (2×), 275 % of control and the T/C (dose: 100.0 mg/kg/injection, schedule: Q01DX005 (ip), vehicle: Klucel (hydroxypropylcellulose) (HPC), evaluated on day 35) was 335 % of control.
